Reference: patent publication US20250376461A1, “INDAZOLE DERIVATIVES FOR TREATING TRPM3-MEDIATED DISORDERS” (Katholieke Universiteit Leuven, priority 2022, published 2025)
The match of structure and compound is tentative.

Amino acid sequences for entries named in this document (tags omitted). Residues count along the entry.
UniProt J9SQF3, 1-1709 isoform 12: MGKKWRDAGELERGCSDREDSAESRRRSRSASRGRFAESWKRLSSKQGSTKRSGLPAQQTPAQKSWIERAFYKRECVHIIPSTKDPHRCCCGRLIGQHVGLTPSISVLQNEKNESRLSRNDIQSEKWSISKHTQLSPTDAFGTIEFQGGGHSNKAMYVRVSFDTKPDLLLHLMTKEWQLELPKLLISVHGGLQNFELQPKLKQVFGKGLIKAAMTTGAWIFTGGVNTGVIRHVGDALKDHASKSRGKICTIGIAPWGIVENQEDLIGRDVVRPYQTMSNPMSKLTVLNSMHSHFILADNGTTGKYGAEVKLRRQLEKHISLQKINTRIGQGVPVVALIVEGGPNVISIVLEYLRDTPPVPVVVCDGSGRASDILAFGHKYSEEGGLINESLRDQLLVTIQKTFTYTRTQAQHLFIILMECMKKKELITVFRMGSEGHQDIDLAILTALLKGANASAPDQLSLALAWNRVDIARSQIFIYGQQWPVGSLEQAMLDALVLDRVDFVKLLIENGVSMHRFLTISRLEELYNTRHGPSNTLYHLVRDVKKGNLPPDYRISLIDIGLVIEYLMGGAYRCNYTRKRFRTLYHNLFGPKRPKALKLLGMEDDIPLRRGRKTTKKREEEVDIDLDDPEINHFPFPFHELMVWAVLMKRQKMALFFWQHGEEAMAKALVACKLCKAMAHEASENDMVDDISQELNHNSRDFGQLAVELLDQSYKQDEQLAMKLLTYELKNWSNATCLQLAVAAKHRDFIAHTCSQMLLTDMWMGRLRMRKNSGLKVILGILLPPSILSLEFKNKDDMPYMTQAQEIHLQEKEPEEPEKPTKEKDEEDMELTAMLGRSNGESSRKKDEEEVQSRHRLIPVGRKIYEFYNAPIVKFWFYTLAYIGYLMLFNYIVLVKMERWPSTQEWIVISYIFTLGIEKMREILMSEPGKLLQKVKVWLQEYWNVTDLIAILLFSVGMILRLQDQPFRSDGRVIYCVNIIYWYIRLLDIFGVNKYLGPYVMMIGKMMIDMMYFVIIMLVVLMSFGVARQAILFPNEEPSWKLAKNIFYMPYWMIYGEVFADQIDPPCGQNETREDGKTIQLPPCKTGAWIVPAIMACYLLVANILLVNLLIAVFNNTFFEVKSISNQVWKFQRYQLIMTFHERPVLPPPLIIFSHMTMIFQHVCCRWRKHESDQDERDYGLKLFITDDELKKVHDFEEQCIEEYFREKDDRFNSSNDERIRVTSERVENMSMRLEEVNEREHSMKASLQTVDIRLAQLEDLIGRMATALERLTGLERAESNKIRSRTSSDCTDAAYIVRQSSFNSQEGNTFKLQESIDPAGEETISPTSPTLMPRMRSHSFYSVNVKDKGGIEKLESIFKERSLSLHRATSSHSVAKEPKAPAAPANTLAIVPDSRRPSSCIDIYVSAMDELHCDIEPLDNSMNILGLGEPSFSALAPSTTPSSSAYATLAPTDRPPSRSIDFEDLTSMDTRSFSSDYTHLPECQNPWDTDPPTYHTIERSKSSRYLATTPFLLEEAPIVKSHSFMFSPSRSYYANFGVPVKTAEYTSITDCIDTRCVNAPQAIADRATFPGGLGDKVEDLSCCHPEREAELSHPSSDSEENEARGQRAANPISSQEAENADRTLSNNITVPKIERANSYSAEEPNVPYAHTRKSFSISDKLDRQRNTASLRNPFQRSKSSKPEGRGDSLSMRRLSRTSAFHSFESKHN

These compounds were tested against mouse TRPM3α2 (mTRPM3) ion channel (Mus musculus, UniProt J9SQF3) (assay: TRPM3 ion channel driven Ca2+ uptake, Fluo-4 AM assay, mTRPM3alpha2 overexpressing flip-in HEK293 cells stimulated with pregnenolone sulfate (50 μM)). Conditions: mTRPM3 overexpressing HEK293 cells stimulated with pregnenolone sulfate (50 μM), activity ranges A, B, C.
Protocol: Monitoring the TRPM3 Ion Channel Driven Ca2+ Uptake.
In order to monitor the inhibition of the mouse TRPM3α2 (mTRPM3) ion channel by the compounds of the invention, a cellular system making use of an mTRPM3alpha2 or hTRPM3 overexpressing cell line (flip-in HEK293) was used. The TRPM3 channel was stimulated/opened with Pregnenolone sulfate (PS) (50 μM) which results in Ca^2+ influx.
For mTRPM3, the intracellular Ca^2+ was measured with a Calcium responsive dye, Fluor-4 AM ester (Invitrogen). Cells were cultured until a confluence of 80-90%, washed with Versene (Invitrogen) and detached from the surface by a short incubation with 0.05% Trypsin (Invitrogen). The trypsination process was stopped by the addition of complete cell culture medium (DMEM, glutamax, 10% FCS, NEAA, Pen-Strep). Cells were collected and resuspended in Krebs buffer without Calcium at RT.
Prior the cell seeding (±2000 cells/well into a black, 384 well plate (Greiner)) the diluted compound was added in the assay plate, together with the PS dissolved in Krebs buffer containing Calcium. […] Directly after cell addition the plates were read on an Envision fluorescence reader (Perkin Elmer) by an Excitation of 485 nm and emission at 535 nm.
Channel inhibition was calculated compared to a non-PS stimulated control versus a condition stimulated with PS (50 μM) with vehicle. The ability of the compounds of the invention to inhibit this activity was determined as: Percentage inhibition=[1−((RFU determined for sample with test compound present−RFU determined for sample with positive control inhibitor) divided by (RFU determined in the presence of vehicle−RFU determined for sample with positive control inhibitor))]*100.
The activities of the Example compounds cpd 001-262 tested are depicted in the table below. All tested compounds show an activity in the Fluo-4 AM assay. The activity ranges A, B and C refer to IC50 values in the Fluo-4 AM assay as follows: “A”: IC50<1 μM; “B”: 1 μM≤IC50≤20 μM and “C”: IC50>20 μM.

Compound	IC50
Cn1nc2ccc(OCc3ccccc3)cc2c1C(=O)NCC(C)(C)N1CCOCC1	> 20 µM
Cc1ncsc1COc1ccc2nn(C)c(C(=O)NCC(C)(C)N3CCOCC3)c2c1	1 to 20 µM
Cn1nc2ccc(OCc3cccnc3C(F)(F)F)cc2c1C(=O)NC(C)(CO)C(N)=O (single isomer, unassigned)	< 1 µM
Cn1nc2ccc(OCc3ccccn3)cc2c1C(=O)N[C@H](CO)C(N)=O	1 to 20 µM
C[C@H](NC(=O)c1c2cc(OCC3CC3)ccc2nn1C)C(N)=O	1 to 20 µM
